The nature of data set [1]: general procedure: Fmoc solid-phase peptide synthesis; Rink amide; HATU/DIPEA; bromoacetic acid/diisopropylcarbodiimide (sub-monomer). Conditions: whole synthesis, on initial Fmoc-sarcosine loading.
The nature of data set [2]: general procedure: Fmoc solid-phase peptide synthesis; 2-chlorotrityl; HATU/DIPEA; bromoacetic acid/diisopropylcarbodiimide (sub-monomer). The note with it: whole synthesis, on initial Fmoc-sarcosine loading.

As for NH2-Gly-(N3)- PSAR10- CONH2, the isolated yield in data set [1] stood at 48%.

With NHFmoc-Gly- (Glu-NHS)- PSAR10-CONH2, in data set [1], the isolated yield was 56%.

In data set [2], NH2-Gly-(N3)- PSAR10- COOH had an isolated yield of 14%.

The substance NH2-Gly-(N3)- PSAR12- CONH2 had an isolated yield in data set [1] of 37%.

These data come from US20240216525 (published 2024).
